Experimental data taken from US11304988B2, “Inhibiting tumor cell migration by inhibition of kinesin light chain 1, variant 1 (KLC1C)” (Northwestern University, priority 2018, dated 2022).

Test system: B16F10 cells
Assay: host inflammatory response to extravasated B16F10 cells in lung
Format: in vivo, mouse
Conditions: for tumor cells surrounded by leukocytes (provoked an inflammatory response): B16F10 cells within lung parenchyma of pretreated mice
Method: FIG. 14. B16F10 cells in lung of mice treated with Tat-Scr 5 days after injection. 25% of the tumor cells were seen several cell diameters away from leukocytes stained with anti CD11a.
FIG. 15. B16F10 cells within lung parenchyma engaged with leukocytes. 96% of the tumor cells in mice pretreated with Tat-KLC1c but only 75% in mice treated with Tat-Scr were surrounded by leukocytes.
Experiments are conducted during development of embodiments herein to examine recently-emigrated melanoma cells and quantify the inflammatory response they generate, the expression of putative melanoma stem cell markers, and the degree of tumor cell and inflammatory cell apoptosis. Experiments are conducted as in Example 2, but mice are sacrificed at appropriate times to examine the host response to the tumor cell extravasation. Early inflammatory response should manifest by day 2 and mature over the next few days. Tumor cells are labeled with carboxyfluorescein (CFSE) to facilitate locating them in lung tissue. Thick (100 μm) frozen sections are cut from the fixed and cryoprotected tissue to allow observation of the 3-dimensional relationship of tumors to the host tissue. Sections are fixed and gently permeabilized (0.3% Triton X-100 in PBS+2.5% BSA) to allow penetration of antibodies, then stained for markers of macrophages (F4/80), neutrophils (GR-1 or S100A9), monocytes (CD14), natural killer cells (CD56), or T cells (CD3). Selective staining for endothelial cells (CD31 or VE-cadherin) delineates intravascular vs. extravascular leukocytes. Additionally, samples are stained for markers of murine myeloid-derived suppressor cells (Arginase-1 and STAT-3) and Regulatory T cells (Tregs; Foxp3). Serial sections are also cut thin (5-10 μm) to allow detailed analysis of the leukocyte types involved in the inflammatory response as a function of time. Cleaved caspase 3 serve as a marker for apoptosis in either tumor cells or leukocytes. […] This is consistent with the determination that melanoma cells that extravasate via the LBRC avoid stimulating an inflammatory response.

Substance	tumor cells surrounded by leukocytes (provoked an inflammatory response)	tumor cells seen several cell diameters away from leukocytes (lung, 5 days after injection, anti CD11a staining)
Tat-KLC1c: 11-amino acid basic region from HIV Tat protein, glycine tripeptide linker, C-terminal decapeptide of KLC1c (MRKMKLGLVN); SEQ ID NO: 8 (YGRKKRRQRRRGGGMRKMKLGLVN)	96%	
Tat-Scr: negative control peptide contains the same ten amino acids in a random order (scrambled, Scr); SEQ ID NO: 9 (YGRKKRRQRRRGGGGKLNKMVMLR) [reference compound]	75%	25%
